Assay results: PubChem BioAssay AID602313 (National Center for Advancing Translational Sciences (NCATS), 2012)
The whole screen tested about 390,000 compounds, of which about 760 (0.19%) were called active. The shares of active, inactive and inconclusive entries below differ from those in the screen. Calls follow the shape of the dose curve; as a rule, active = well fitted inhibition curve with a large enough effect; inconclusive = small, poorly fitted or top-dose-only effect; inactive = flat fitted curve, though single readings scatter. A potency beside an inconclusive call is a rough fit, not a confirmed value.

Assay: qHTS for Inhibitors of Vif-A3F Interactions: qHTS; also: nearly all actives have a fitted effect of over 65% in size
Conditions: HeLa A3F-eYFP + Vif (tagged APOBEC3F with the HIV-1 protein that degrades it), YFP fluorescence increase; series mostly up to 46.1 µM
Method in brief: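 HeLa cells stably expressing A3F-eYFP plus Vif, plated and incubated overnight at 37 deg C, then exposed to compounds overnight at 37 deg C. Blocked degradation read as raised yellow fluorescence (Ex 488/Em 500-530).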
Potency is read from the fitted curve at half-maximal effect.

SMILES	Potency
Cc1ccc(-c2nc(CS(=O)CC(=O)N3CCN(c4ccc(Cl)cc4)CC3)c(C)o2)cc1 (stereo not drawn)	inactive
COc1ccc(CCNC(=O)CN(c2cc(OC)ccc2OC)S(=O)(=O)c2ccccc2)cc1	inconclusive: 3.16 µM [inhibitor, partial curve, poor fit]
CCOC(=O)C1C(=O)NC(N2CCN(Cc3ccccc3)CC2)=NC1c1ccccc1 (stereo not drawn)	inactive
CCOc1ccccc1NC(=O)c1c(NCc2sccc2C)sc2c1CCCCC2	inconclusive: 35.5 µM [inhibitor, single point]
CCN(CC(=O)Nc1ccc(Br)cc1)C(=O)Cc1cccc(F)c1	inconclusive: 25.1 µM [inhibitor, single point]
CNc1ccc(C(=O)OCC(=O)NC(=O)NC2CCCCC2)cc1[N+](=O)[O-]	inconclusive: 20 µM [inhibitor, single point]
COc1ccc(-c2noc(CN(C)CCC3CCCCO3)n2)cc1 (stereo not drawn)	inactive
O=C(CCl)Nc1nc(-c2ccco2)c(-c2ccco2)s1	inactive
CN(C)c1c2ccccc2nc2c(F)c(F)c(F)c(F)c12	inconclusive: 35.5 µM [inhibitor, single point]
COC(=O)C1=NN(C(C)=O)C2(CC(=O)N(c3cccc(C)c3)C2=O)C1 (stereo not drawn)	inactive
CC(C)(C)NC(=S)N/N=C/c1cccnc1	inconclusive: 35.5 µM [inhibitor, single point]
O=C1/C(=C\c2ccco2)CCC/C1=C\c1ccco1	inconclusive: 35.5 µM [inhibitor, single point]
CC1CCN(Cc2c(O)ccc3c2O/C(=C\c2ccco2)C3=O)CC1	inconclusive: 35.5 µM [inhibitor, single point]
CCCCNC(=S)N/N=C/C1=CCC2CC1C2(C)C (stereo not drawn)	inconclusive: 5.62 µM [inhibitor, single point]
Cc1c(Cl)cccc1NC(=O)CSc1nncn1-c1ccccn1	inconclusive: 6.31 µM [inhibitor, single point]
Cc1ccn2c(Nc3ccc4c(c3)OCCO4)c(-c3ccc(Cl)s3)nc2c1	inactive
Cc1ccc2c(c1)cc(C(=O)Nc1ccc(F)cc1F)n2C	inconclusive: 2.24 µM [inhibitor, partial curve, poor fit]
CCc1cccc(C)c1N1C(=O)CN(Cc2ccccc2)C1=S	inconclusive: 35.5 µM [inhibitor, single point]
Cc1ccc(S(=O)(=O)Nc2nc3n(n2)C(c2ccc(F)cc2)C=C(c2ccccc2)N3)cc1 (stereo not drawn)	inconclusive: 35.5 µM [inhibitor, single point]
CCOC(=O)c1cnc(SCC(=O)N2CCC(C(N)=O)CC2)nc1N	inconclusive: 5.62 µM [inhibitor, single point]
Cc1ccc(CC(=O)NCCCc2ccccc2)cc1	inactive
O=C1S/C(=C/c2ccc(N3CCOCC3)o2)C(=O)N1Cc1ccc(F)cc1	inconclusive: 5.62 µM [inhibitor, single point]
N#Cc1ccc(-c2cn(-c3ccccc3)c3[n+]2CCCS3)cc1	inconclusive: 6.31 µM [inhibitor, single point]

Reprinted at random: 4 records from the list.
SMILES	Potency
CN(C)c1c2ccccc2nc2c(F)c(F)c(F)c(F)c12	inconclusive: 35.5 µM [inhibitor, single point]
Cc1c(Cl)cccc1NC(=O)CSc1nncn1-c1ccccn1	inconclusive: 6.31 µM [inhibitor, single point]
O=C(CCl)Nc1nc(-c2ccco2)c(-c2ccco2)s1	inactive
Cc1ccc2c(c1)cc(C(=O)Nc1ccc(F)cc1F)n2C	inconclusive: 2.24 µM [inhibitor, partial curve, poor fit]

Following part:

SMILES	Potency
COc1ccc(-c2nnc(NC(=O)c3ccccc3C)o2)cc1	inconclusive: 35.5 µM [inhibitor, single point]
CCOC(=O)C(Sc1cc(-c2ccccc2)nc2ncnn12)C(C)=O (stereo not drawn)	inconclusive: 35.5 µM [inhibitor, single point]
c1ccc2nc(N3CCN(Cc4ccc5c(c4)OCO5)CC3)cnc2c1	inactive
CCCN(CC(=O)Nc1ccccc1C)C(=O)c1ccc(-c2ccccc2)cc1	inactive
CCOC(=O)C1C(c2ccccc2O)NC(=O)NC1(O)C(F)(F)F (stereo not drawn)	inconclusive: 6.31 µM [inhibitor, single point]
C/C(Sc1nnc(Cc2ccccc2)o1)=C(\O)c1ccccc1	inconclusive: 3.16 µM [inhibitor, single point]
COc1ccc(-n2c(-c3ccc(Br)cc3)c[n+]3c2SC(C)C3)cc1 (stereo not drawn)	inconclusive: 5.62 µM [inhibitor, single point]
COc1ccc(-c2[nH]ncc2CN(C)Cc2cccnc2)c(OC)c1	inconclusive: 6.31 µM [inhibitor, single point]
CCc1cc2c(=O)n(Cc3ccco3)c(SCC(=O)NC3CCS(=O)(=O)C3)nc2s1 (stereo not drawn)	inconclusive: 5.01 µM [inhibitor, single point]
Cc1cccc(Cn2cccc2CNS(=O)(=O)c2ccc(Br)cc2)c1	inconclusive: 35.5 µM [inhibitor, single point]
O=C(Cc1nc2ccccc2[nH]c1=O)c1ccccc1	inconclusive: 35.5 µM [inhibitor, single point]
Cc1cccc(C)c1OCC(O)Cn1c2ccccc2c2ccccc21 (stereo not drawn)	inconclusive: 25.1 µM [inhibitor, single point]
CCOC(=O)c1cc(-c2csc(N/N=C/c3ccccc3Cl)n2)on1	inconclusive: 20 µM [inhibitor, single point]
COc1ccc(CCNC(=O)CSc2ncc(C(=O)Nc3ccccc3)c(=O)n2C)cc1	inconclusive: 28.2 µM [inhibitor, single point]
N/C(Cc1ccc([N+](=O)[O-])cc1)=N\OC(=O)c1ccc(Br)cc1	inconclusive: 5.62 µM [inhibitor, single point]
O=C(N/N=C/c1cccc2ccccc12)c1cccnc1	inactive
Cc1ccc(N=C2NC(=O)/C(=C/C=C/c3ccco3)S2)cc1C	inconclusive: 35.5 µM [inhibitor, single point]
CCC/C=C/c1ccc(CN2C(C(C)C)C(=O)N(Cc3cn(CC4CCCCC4)nn3)CCS2(=O)=O)cc1 (stereo not drawn)	inconclusive: 35.5 µM [inhibitor, single point]
CCOC(=O)c1c2c3c(cccc3n(C)c1=O)C(=O)c1ccccc1-2	inactive
O=C(Nc1nc2c(s1)CN(Cc1ccccc1)CC2)c1cccc(S(=O)(=O)N2CCc3ccccc32)c1	inconclusive: 22.4 µM [inhibitor, single point]
COC(=O)c1c(-c2ccc(OC)cc2)oc2ccccc12	inactive
CCN1CCN(c2ccc(S(=O)(=O)N3CCCCC3)cc2NC(=O)CCNC(C)=O)CC1	inconclusive: 7.08 µM [inhibitor, partial curve, poor fit]
O=C(N/N=C/c1ccc(-c2cccc(C(F)(F)F)c2)o1)c1ccccc1Br	inconclusive: 35.5 µM [inhibitor, single point]

SMILES	Potency
COc1cccc(Oc2ccc(C(F)(F)F)cc2NC(=O)CN2C(=O)NC3(CCCC3)C2=O)c1	inconclusive: 35.5 µM [inhibitor, single point]
O=C(Nc1sc2c(c1C(=O)Nc1cccc(Cl)c1)CCCC2)c1cccs1	inactive
Cc1cc([N+](=O)[O-])ccc1NCc1ccc2ccccc2c1	inactive
N#CCC(=O)Nc1ccc(C(=O)NCC(c2ccco2)N2CCCCC2)cc1 (stereo not drawn)	inconclusive: 25.1 µM [inhibitor, single point]
Cc1ccc(N2CC(C(=O)Nc3ncc([N+](=O)[O-])s3)CC2=O)cc1 (stereo not drawn)	inactive
COc1ccc(/C=C2/CC/C(=C\c3ccc(OC)c(OC)c3OC)C2=O)c(OC)c1OC	inconclusive: 35.5 µM [inhibitor, single point]
CC1Sc2ccc(C(=O)Nc3ccc(S(=O)(=O)N(C)C)cc3)cc2NC1=O (stereo not drawn)	inconclusive: 15.8 µM [inhibitor, single point]
COc1ccc(NC(=O)COC(=O)/C=C/C(=O)OCC(=O)Nc2ccc(OC)c(Cl)c2)cc1Cl	inactive
Cc1cc(/C=C(\C#N)C(=O)NCc2ccccc2)c(C)[nH]1	inconclusive: 35.5 µM [inhibitor, single point]
O=C(N/N=C\c1cc2c(cc1[N+](=O)[O-])OCO2)c1cccs1	inactive
N#Cc1c(Nc2ccccc2C(F)(F)F)s[nH]c1=O	inconclusive: 0.355 µM [inhibitor, full curve, poor fit]
O=[N+]([O-])c1ccc(NC(=S)N2CCc3ccccc32)cc1	inconclusive: 22.4 µM [inhibitor, single point]
CC(C)c1ccccc1NC(=O)COc1ccc(C(=O)NCCc2ccccc2)cc1	inconclusive: 35.5 µM [inhibitor, single point]
O=C(Nc1ccc(Br)cc1)Nc1ccccc1F	inactive
CC1CCC(C(C)C)C(OCC(O)CN2CCCC(C)C2)C1 (stereo not drawn)	inconclusive: 6.31 µM [inhibitor, single point]
COC(=O)c1ccc(-n2c(CCC(=O)O)ccc2-c2ccccc2)cc1	inconclusive: 6.31 µM [inhibitor, partial curve, poor fit]
Cc1ccc(/C=N/NC(=O)c2cc3ccccc3cc2O)o1	inconclusive: 22.4 µM [inhibitor, single point]
O=C(CSc1nc2c([nH]c3ccccc32)c(=O)n1-c1cccc(C(F)(F)F)c1)N1CCc2ccccc21	inconclusive: 15.8 µM [inhibitor, partial curve, poor fit]
Cc1cc(C)c2c(N)c(C(=O)c3ccccc3)sc2n1	inconclusive: 25.1 µM [inhibitor, single point]
CC1C(=O)NN=C1C(=O)N/N=C\C(Br)=C\c1ccccc1 (stereo not drawn)	inconclusive: 6.31 µM [inhibitor, single point]
Cc1cc2cc(CNC(=O)c3ccc(Br)o3)ccc2n1C	inactive
CCOC(=O)N1CCN(c2cc(=O)n(-c3cccc(C)c3)c(=O)[nH]2)CC1	inconclusive: 2.82 µM [inhibitor, single point]
